# Earlier results as cited in patent US7795226B2, “Control of radiation injury” (Biotempt B.V., priority 2006, dated 2010).
# At least one structure is not confirmed: it was looked up by name or label, or the drawing left a doubt.
# System: gamma-irradiated mice
# Conditions: mouse, in vivo; cited from earlier work
compound,measurement,value
C[C@]12CC[C@@H]3c4ccc(O)cc4CC[C@H]3[C@@H]1CC[C@@H]2O [estradiol],protection against gamma-irradiation (in words),No protection was observed
